Measurements published in the supplement of paper PMC6411743.
± gives the standard deviation of the averaged measurements. The entries are a selection whose mix differs from that of the whole data set.

Protein sequences, listed by entry. Tags and fused reporters are not part of them. Lines headed by an entry give the natural chain unless they say otherwise; changes in a name come on top.
UniProt Q9H8K7: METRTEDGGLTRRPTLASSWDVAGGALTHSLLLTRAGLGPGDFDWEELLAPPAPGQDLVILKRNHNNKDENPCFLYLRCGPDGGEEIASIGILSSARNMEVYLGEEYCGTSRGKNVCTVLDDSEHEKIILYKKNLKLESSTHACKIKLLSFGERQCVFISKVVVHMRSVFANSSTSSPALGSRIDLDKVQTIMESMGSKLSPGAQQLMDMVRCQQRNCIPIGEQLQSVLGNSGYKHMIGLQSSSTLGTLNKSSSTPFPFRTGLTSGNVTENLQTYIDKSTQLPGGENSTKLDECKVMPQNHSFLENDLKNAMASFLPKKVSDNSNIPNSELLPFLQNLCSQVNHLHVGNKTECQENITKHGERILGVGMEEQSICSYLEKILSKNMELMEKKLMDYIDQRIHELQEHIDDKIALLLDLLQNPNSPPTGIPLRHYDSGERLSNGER
UniProt Q9HBH0: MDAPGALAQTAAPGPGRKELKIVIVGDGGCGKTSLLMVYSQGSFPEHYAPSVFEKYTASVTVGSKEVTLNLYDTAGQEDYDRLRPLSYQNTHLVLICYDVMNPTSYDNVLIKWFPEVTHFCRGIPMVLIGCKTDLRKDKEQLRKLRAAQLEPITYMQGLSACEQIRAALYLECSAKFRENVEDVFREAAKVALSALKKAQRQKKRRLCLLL
UniProt Q9H4A3: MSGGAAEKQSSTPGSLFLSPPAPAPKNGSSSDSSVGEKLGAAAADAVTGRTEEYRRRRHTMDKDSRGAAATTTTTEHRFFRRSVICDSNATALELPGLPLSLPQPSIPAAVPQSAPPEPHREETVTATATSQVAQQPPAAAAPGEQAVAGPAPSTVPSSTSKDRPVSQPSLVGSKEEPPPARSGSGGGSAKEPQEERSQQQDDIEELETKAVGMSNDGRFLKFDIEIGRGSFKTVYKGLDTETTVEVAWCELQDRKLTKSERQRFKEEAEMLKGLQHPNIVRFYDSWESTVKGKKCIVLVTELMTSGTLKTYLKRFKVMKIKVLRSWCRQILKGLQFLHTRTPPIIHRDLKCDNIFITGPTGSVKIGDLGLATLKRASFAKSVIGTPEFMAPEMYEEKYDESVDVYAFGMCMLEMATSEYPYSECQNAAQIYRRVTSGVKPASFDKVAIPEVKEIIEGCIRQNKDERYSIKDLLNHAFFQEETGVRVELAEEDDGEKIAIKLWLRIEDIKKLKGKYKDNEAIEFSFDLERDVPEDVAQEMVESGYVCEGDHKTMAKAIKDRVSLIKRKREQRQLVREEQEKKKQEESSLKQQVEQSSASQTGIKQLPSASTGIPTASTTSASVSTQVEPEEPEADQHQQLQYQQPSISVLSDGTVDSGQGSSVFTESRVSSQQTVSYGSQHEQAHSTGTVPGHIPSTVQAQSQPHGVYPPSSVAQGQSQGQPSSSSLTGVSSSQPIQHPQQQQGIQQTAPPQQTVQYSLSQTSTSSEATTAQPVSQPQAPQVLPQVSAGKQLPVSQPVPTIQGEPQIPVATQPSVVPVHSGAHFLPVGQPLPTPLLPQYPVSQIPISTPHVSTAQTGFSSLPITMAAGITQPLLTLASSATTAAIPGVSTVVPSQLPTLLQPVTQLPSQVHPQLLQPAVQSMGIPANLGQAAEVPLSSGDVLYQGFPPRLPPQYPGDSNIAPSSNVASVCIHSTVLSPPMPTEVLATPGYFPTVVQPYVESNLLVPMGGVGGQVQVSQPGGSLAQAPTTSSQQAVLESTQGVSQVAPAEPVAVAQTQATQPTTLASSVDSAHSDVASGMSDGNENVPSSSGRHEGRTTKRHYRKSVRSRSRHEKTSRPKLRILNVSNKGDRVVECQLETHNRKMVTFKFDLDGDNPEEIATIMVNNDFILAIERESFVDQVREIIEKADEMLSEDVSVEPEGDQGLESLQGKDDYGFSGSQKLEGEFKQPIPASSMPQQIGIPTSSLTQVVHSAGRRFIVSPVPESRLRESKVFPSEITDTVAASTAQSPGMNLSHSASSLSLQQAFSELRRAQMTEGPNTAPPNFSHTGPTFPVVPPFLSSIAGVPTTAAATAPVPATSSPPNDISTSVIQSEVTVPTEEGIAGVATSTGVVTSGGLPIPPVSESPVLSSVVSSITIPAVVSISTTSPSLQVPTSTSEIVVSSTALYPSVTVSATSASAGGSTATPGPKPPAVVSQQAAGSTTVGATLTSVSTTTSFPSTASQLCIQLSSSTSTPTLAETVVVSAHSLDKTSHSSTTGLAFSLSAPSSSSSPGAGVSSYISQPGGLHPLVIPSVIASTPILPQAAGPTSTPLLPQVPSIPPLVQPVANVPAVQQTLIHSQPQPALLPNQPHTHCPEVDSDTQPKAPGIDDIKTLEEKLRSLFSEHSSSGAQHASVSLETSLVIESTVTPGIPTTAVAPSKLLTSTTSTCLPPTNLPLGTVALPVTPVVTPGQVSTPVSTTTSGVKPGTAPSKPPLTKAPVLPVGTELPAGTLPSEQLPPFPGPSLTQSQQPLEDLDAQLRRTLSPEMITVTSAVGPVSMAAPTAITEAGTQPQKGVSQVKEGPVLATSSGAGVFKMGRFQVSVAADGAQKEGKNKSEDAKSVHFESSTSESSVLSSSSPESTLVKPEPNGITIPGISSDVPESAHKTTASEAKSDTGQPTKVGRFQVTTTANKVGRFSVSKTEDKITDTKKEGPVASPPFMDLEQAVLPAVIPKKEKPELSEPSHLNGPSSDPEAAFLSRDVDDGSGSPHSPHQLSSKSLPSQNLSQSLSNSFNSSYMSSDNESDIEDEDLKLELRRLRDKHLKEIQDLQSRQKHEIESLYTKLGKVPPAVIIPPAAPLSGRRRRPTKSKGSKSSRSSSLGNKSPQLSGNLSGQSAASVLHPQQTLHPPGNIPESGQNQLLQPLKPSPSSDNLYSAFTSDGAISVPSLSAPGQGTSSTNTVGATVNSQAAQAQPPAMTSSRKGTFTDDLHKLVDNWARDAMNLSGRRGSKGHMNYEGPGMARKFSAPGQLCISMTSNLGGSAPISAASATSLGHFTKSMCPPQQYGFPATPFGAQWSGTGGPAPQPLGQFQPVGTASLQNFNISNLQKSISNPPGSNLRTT
UniProt Q9H1P3, whole entry: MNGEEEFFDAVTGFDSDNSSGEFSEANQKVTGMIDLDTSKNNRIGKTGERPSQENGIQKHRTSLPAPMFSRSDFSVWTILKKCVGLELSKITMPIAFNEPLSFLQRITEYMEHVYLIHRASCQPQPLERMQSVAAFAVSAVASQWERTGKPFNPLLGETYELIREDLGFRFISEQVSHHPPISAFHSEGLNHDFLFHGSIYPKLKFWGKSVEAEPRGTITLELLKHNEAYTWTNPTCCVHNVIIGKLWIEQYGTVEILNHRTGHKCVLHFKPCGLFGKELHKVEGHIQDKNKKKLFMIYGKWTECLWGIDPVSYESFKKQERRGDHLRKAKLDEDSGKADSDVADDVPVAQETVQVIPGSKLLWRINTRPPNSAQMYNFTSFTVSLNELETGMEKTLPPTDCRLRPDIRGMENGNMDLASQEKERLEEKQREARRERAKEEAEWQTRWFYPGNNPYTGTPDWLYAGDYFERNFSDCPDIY
UniProt Q9HAU5: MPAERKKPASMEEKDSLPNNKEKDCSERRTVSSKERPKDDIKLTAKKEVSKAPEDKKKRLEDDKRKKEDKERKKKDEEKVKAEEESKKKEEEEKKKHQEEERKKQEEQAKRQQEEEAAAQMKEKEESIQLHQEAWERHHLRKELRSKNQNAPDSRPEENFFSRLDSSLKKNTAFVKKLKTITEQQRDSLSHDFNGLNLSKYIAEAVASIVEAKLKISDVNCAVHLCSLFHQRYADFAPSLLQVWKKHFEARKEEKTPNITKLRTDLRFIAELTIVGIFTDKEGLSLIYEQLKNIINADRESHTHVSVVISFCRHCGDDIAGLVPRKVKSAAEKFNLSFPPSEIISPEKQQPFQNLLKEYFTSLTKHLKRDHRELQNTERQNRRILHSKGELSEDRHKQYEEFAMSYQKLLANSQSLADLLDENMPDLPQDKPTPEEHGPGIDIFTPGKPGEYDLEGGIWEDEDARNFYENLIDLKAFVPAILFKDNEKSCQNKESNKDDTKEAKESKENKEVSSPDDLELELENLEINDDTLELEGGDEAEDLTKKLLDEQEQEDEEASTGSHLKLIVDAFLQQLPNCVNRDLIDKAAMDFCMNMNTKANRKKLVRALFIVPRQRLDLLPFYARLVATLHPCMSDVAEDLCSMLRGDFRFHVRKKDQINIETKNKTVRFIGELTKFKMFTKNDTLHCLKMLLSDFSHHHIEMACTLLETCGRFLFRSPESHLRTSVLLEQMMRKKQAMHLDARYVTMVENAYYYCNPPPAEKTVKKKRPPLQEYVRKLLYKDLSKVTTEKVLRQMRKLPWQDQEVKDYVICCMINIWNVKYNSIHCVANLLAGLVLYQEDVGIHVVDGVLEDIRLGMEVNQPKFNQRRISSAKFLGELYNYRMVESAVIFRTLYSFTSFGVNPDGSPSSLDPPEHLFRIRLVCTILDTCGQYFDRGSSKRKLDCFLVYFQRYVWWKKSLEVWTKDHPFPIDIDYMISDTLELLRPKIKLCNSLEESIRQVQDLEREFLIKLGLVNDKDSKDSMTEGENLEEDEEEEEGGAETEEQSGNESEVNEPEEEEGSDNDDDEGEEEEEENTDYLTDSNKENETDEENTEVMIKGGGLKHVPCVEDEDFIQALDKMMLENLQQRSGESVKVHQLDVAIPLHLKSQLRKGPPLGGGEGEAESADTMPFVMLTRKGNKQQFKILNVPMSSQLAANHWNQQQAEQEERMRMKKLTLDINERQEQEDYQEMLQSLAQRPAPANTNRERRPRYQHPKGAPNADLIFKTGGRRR
UniProt Q9NP87, whole entry: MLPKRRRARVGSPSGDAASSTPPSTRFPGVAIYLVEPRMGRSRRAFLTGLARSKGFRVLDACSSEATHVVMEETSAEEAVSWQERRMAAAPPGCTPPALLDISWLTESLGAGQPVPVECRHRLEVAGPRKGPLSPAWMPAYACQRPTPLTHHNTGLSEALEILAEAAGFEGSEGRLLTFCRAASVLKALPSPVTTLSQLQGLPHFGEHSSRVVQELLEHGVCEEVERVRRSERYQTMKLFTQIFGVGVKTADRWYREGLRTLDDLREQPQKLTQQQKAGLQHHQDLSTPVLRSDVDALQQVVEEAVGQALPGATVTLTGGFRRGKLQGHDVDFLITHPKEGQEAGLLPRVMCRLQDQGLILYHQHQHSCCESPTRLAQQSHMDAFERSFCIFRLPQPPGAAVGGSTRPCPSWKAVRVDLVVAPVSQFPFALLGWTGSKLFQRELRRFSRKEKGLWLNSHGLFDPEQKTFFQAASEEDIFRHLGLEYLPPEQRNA
UniProt Q9HA92: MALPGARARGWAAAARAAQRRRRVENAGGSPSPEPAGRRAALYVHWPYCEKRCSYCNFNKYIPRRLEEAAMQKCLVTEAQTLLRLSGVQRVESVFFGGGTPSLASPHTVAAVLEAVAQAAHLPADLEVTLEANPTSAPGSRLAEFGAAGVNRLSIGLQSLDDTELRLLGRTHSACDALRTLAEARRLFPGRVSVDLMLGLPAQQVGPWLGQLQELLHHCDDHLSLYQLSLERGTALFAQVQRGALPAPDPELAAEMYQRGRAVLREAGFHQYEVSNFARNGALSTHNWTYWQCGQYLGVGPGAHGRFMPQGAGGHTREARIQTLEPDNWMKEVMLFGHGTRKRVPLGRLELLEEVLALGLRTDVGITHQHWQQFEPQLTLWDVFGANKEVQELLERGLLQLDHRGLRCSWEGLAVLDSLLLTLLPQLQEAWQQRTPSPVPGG
UniProt Q9H5X1: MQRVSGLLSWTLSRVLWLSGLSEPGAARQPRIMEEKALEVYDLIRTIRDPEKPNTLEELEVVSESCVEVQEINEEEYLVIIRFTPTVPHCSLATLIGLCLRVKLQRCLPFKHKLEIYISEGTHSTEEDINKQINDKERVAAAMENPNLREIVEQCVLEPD
UniProt Q9H4A5: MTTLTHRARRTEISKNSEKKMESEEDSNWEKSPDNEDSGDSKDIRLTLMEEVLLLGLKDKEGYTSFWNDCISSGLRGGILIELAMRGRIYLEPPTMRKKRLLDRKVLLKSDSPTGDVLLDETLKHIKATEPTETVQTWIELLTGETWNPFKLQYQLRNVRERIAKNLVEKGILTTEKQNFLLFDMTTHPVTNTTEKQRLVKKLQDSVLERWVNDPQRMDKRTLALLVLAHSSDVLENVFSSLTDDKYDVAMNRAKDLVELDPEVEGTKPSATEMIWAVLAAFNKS
UniProt Q9H871: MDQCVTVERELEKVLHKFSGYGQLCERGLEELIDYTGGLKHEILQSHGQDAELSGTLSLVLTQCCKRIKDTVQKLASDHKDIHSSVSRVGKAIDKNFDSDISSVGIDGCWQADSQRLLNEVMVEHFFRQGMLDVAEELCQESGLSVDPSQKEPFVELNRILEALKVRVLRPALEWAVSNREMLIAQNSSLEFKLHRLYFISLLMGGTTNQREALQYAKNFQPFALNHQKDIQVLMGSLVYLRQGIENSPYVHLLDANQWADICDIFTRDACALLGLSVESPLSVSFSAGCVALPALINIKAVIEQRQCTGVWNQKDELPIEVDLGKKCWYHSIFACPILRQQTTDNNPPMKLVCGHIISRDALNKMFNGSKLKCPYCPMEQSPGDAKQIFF

Compound: Nc1ncnc2c1ncn2[C@@H]1O[C@H](COP(=O)(O)OP(=O)(O)OP(=O)(O)O)[C@@H](O)[C@H]1O [adenosine triphosphate]
Test: NP40-soluble protein abundance relative to vehicle (solubility fold change) (ratio); higher = more soluble protein in presence of ATP
Outline: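 Values are fold changes against the detergent-processed vehicle, based on vsn-normalised intensities. Jurkat crude lysate was treated at eight concentrations from 0.1 to 10 mM (10 min at room temperature, then 3 min at 37 °C), solubilised with 0.8% NP40 and benzonase, ultracentrifuged and analysed by TMT-labelled LC-MS/MS over three independent experiments.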

| Target | NP40-soluble protein abundance (concentration: 1mM) | NP40-soluble protein abundance (concentration: 2mM) | NP40-soluble protein abundance (concentration: 4mM) | NP40-soluble protein abundance (concentration: 6mM) | NP40-soluble protein abundance (concentration: 8mM) | NP40-soluble protein abundance (concentration: 10mM) |
| --- | --- | --- | --- | --- | --- | --- |
| UniProt Q9GZS1-2 | 1.04 ± 0.085 | 1.06 ± 0.03 | 1.13 ± 0.091 | 1.14 ± 0.037 | 1.18 ± 0.089 | 1.19 ± 0.059 |
| OSGEPL1 (UniProt Q9H4B0) | 1.03 ± 0.014 | 1.06 ± 0.039 | 1.08 ± 0.028 | 1 ± 0.067 | 1.08 ± 0.011 | 1.07 ± 0.067 |
| UniProt Q9H8K7 | 1.06 ± 0.056 | 1.01 ± 0.032 | 1.026 ± 0.0098 | 1.03 ± 0.021 | 0.999 ± 0.058 | 1.04 ± 0.11 |
| UniProt Q9H773 | 0.83 ± 0.0096 | 0.89 ± 0.042 | 0.924 ± 0.12 | 0.822 ± 0.0085 | 0.813 ± 0.13 | 0.73 ± 0.11 |
| RHOF (UniProt Q9HBH0) | 1.07 ± 0.19 | 1.05 ± 0.15 | 1.05 ± 0.17 | 0.994 ± 0.19 | 1.03 ± 0.068 | 1.09 ± 0.12 |
| UniProt Q9H4A3 and related entries | 1.01 ± 0.043 | 1 ± 0.025 | 0.987 ± 0.029 | 1.03 ± 0.06 | 0.964 ± 0.026 | 0.991 ± 0.02 |
| UniProt Q9H1P3 and related entries | 0.977 ± 0.036 | 0.99 ± 0.052 | 0.968 ± 0.038 | 0.932 ± 0.11 | 0.975 ± 0.037 | 0.969 ± 0.044 |
| UPF2 (UniProt Q9HAU5) | 1.01 ± 0.018 | 1 ± 0.0075 | 0.988 ± 0.027 | 1.02 ± 0.037 | 0.985 ± 0.018 | 0.997 ± 0.033 |
| UniProt Q9H6Z4 and related entries | 0.934 ± 0.04 | 0.962 ± 0.032 | 0.921 ± 0.011 | 0.962 ± 0.042 | 0.9052 ± 0.0085 | 0.911 ± 0.011 |
| UniProt Q9H0X9 and related entries | 1.05 ± 0.068 | 1.06 ± 0.018 | 1.01 ± 0.1 | 1.06 ± 0.04 | 1.02 ± 0.073 | 0.996 ± 0.013 |
| UniProt Q9NP87 | 1.02 ± 0.08 | 1.06 ± 0.046 | 1.06 ± 0.018 | 1.07 ± 0.065 | 0.954 ± 0.11 | 0.985 ± 0.11 |
| UniProt Q9C0I1 | 0.964 ± 0.12 | 0.965 ± 0.068 | 0.956 ± 0.14 | 0.924 ± 0.099 | 0.962 ± 0.1 | 0.942 ± 0.091 |
| UniProt Q9H7C9 | 0.946 ± 0.065 | 0.954 ± 0.022 | 0.952 ± 0.025 | 0.961 ± 0.045 | 0.94 ± 0.015 | 0.881 ± 0.067 |
| UniProt Q9GZU8 | 0.91 ± 0.038 | 0.893 ± 0.023 | 0.869 ± 0.037 | 0.919 ± 0.055 | 0.859 ± 0.036 | 0.844 ± 0.023 |
| GPN2 (UniProt Q9H9Y4) | 1.09 ± 0.051 | 1.15 ± 0.12 | 1.08 ± 0.1 | 1.07 ± 0.1 | 1.06 ± 0.067 | 1.05 ± 0.13 |
| ANAPC1 (UniProt Q9H1A4) | 1.1 ± 0.061 | 1.05 ± 0.043 | 1.05 ± 0.012 | 1.01 ± 0.076 | 1.06 ± 0.027 | 1.04 ± 0.049 |
| GGNBP2 (UniProt Q9H3C7) | 1.1 ± 0.067 | 1.08 ± 0.035 | 1.2 ± 0.019 | 1.15 ± 0.036 | 1.12 ± 0.091 | 1.07 ± 0.047 |
| AGO4 (UniProt Q9HCK5) | 1.04 ± 0.059 | 1.02 ± 0.064 | 0.998 ± 0.089 | 0.885 ± 0.028 | 1.01 ± 0.053 | 1.09 ± 0.026 |
| RSAD1 (UniProt Q9HA92) | 1.2 ± 0.052 | 1.15 ± 0.14 | 1.1 ± 0.066 | 1.11 ± 0.069 | 1.05 ± 0.019 | 1.1 ± 0.054 |
| UniProt Q9H5X1 | 0.934 ± 0.04 | 0.985 ± 0.021 | 0.988 ± 0.025 | 1 ± 0.072 | 0.9298 ± 0.0039 | 0.898 ± 0.014 |
| RAB1B (UniProt Q9H0U4) | 0.957 ± 0.059 | 0.935 ± 0.057 | 0.901 ± 0.065 | 0.965 ± 0.048 | 0.907 ± 0.045 | 0.907 ± 0.041 |
| GOLPH3L (UniProt Q9H4A5) | 0.966 ± 0.033 | 0.965 ± 0.037 | 0.9576 ± 0.0063 | 0.949 ± 0.022 | 0.945 ± 0.012 | 0.926 ± 0.049 |
| MYH16 (UniProt Q9H6N6) | 0.947 ± 0.079 | 0.927 ± 0.071 | 0.889 ± 0.07 | 0.995 ± 0.061 | 0.879 ± 0.023 | 0.939 ± 0.066 |
| UniProt Q9C0D5 and related entries | 0.947 ± 0.1 | 1.01 ± 0.049 | 0.987 ± 0.021 | 1.02 ± 0.09 | 0.958 ± 0.046 | 1 ± 0.034 |
| UniProt Q9H0W8 | 0.989 ± 0.13 | 1.02 ± 0.06 | 1.01 ± 0.05 | 1 ± 0.085 | 0.945 ± 0.059 | 0.95 ± 0.036 |
| UniProt Q9HCE9 and related entries | 0.956 ± 0.099 | 1.01 ± 0.11 | 1.04 ± 0.016 | 0.959 ± 0.21 | 0.907 ± 0.16 | 1.02 ± 0.13 |
| UniProt Q9H1E5 | 0.8322 ± 0.0022 | 0.943 ± 0.028 | 0.886 ± 0.038 | 0.802 ± 0.1 | 0.8674 ± 0.0085 | 0.913 ± 0.016 |
| UniProt Q9H7E9 and related entries | 1.01 ± 0.2 | 0.921 ± 0.063 | 0.983 ± 0.062 | 1.02 ± 0.1 | 1.02 ± 0.053 | 0.965 ± 0.071 |
| UniProt Q9H871 | 1.05 ± 0.048 | 0.993 ± 0.052 | 0.976 ± 0.062 | 0.946 ± 0.16 | 0.982 ± 0.096 | 0.987 ± 0.087 |
| UniProt Q9H1K0 | 0.924 ± 0.16 | 0.958 ± 0.15 | 0.909 ± 0.11 | 0.846 ± 0.17 | 0.914 ± 0.068 | 0.882 ± 0.077 |

Complete entries as entered above. Values in the order: NP40-soluble protein abundance (concentration: 1mM)	NP40-soluble protein abundance (concentration: 2mM)	NP40-soluble protein abundance (concentration: 4mM)	NP40-soluble protein abundance (concentration: 6mM)	NP40-soluble protein abundance (concentration: 8mM)	NP40-soluble protein abundance (concentration: 10mM)
GGNBP2 (UniProt Q9H3C7) as listed: 1.1 ± 0.067	1.08 ± 0.035	1.2 ± 0.019	1.15 ± 0.036	1.12 ± 0.091	1.07 ± 0.047
UniProt Q9H6Z4 and related entries as listed: 0.934 ± 0.04	0.962 ± 0.032	0.921 ± 0.011	0.962 ± 0.042	0.9052 ± 0.0085	0.911 ± 0.011
